Assay results reported in patent US11242359B2, “Biocompatible modular tetrazine platform” (Centre national de la recherche scientifique, priority 2017, dated 2022).

Test: Chemoselectivity of (R)-NODAGA-S-Tz-Cl for thiols versus amines: conversion rate of model peptides (LC-MS at 214 nm)
Details: peptide 20 μM, phosphate buffer 0.01 M, 2.5 equiv. (R)-NODAGA-S-Tz-Cl, 25° C.

| Substance | Conversion rate of the peptide (pH 6.29, 3.5 min) | Conversion rate of the peptide (pH 6.29, 30 min) | Conversion rate of the peptide (pH 7.13, 3.5 min) | Conversion rate of the peptide (pH 7.13, 30 min) | Conversion rate of the peptide (pH 5.97, 3.5 min) | Conversion rate of the peptide (pH 5.97, 30 min) |
| --- | --- | --- | --- | --- | --- | --- |
| Ac-MKYWGRGDS-NH2 | <1% | <1% | <1% | <1% |  |  |
| Ac-CKYWGRGDS-NH2 [model peptide containing a cysteine (thiol)] | 96% | quant. | quant. | quant. | 96% | 97% |
